From US20100323904, “Transcription chip” (published 2010)

Experiments:
[1] = molecular target: T1, NF-kB p50 (UniProt P19838); test: binding assay; conditions: 5'-NH2(CH2)12 on top strand, immobilized on chip; array fluorescence immunoassay, 100 ng/mL; purified recombinant protein; protein details: Promega
T1 sequence (looked up, limits assumed): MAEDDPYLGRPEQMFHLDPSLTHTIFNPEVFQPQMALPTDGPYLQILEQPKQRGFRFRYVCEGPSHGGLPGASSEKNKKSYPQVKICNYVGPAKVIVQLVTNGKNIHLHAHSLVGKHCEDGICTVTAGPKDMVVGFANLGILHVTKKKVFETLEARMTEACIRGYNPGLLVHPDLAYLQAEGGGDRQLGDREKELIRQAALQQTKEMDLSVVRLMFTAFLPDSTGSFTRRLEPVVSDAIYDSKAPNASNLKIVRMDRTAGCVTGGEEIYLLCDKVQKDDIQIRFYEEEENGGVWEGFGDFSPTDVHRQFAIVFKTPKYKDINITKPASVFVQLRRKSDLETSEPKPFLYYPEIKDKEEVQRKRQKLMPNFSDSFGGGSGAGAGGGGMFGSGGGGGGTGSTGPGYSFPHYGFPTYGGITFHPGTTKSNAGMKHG

[2] = molecular target: T2, NF-kB p50 (endogenous, HeLa) (Homo sapiens) (UniProt P19838); test: ELISA; conditions: 5'-NH2(CH2)12 on top strand, immobilized on chip; HeLa extract; stronger signal after TNF-alpha stimulation; protein in an extract
T2 sequence (looked up, limits assumed): T1 sequence (looked up, limits assumed)

Sequence	binding result [1]	binding result [2]
GGGAGCTGAGTAAGAACACTGTGTTCTATGCATGCAGAACACTGTGTTCTCATG / CATGAGAACAGACTGTTCTGCATGCATAGAACAGACTGTTCTTACTCAGCTCCC [GRE]	no binding	–
GGGAGCTGAGTAAGGTCACAGTGACCTATGCATGCAGGTCACAGTGACCTCATG / TCAGGTCACAGTGACCTGATCTCAGGTCACAGTGACCTTTCACGAGGTAC [ERE]	no binding	–
GGGAGCTGAGTAGGGAAATTCCATGCATGCGGGAAATTCCCATG (double strand) [PRD II (two copies)]	–	binds

For part of these data: Where cells or extracts were used, other partners may take part. Where a protein sequence is shown, tags need not be part of it. For part of these data: The exact form of at least one protein or probe is not confirmed. For part of these data: No signal at the amounts used counts as a negative.
